Measured values reported in PubChem BioAssay AID248 (DTP/NCI, 2004).
The list is a part of this screen's results and no random one: it is rich in T/C values a quarter to a half above the control, in often repeated tests (any T/C) and in doses without a T/C. Further doses and runs are listed elsewhere. T/C gives the treated animals as a percentage of the vehicle group. Some doses have a count of surviving animals in place of a T/C: the source holds a T/C of zero for them, seemingly a mark for toxic or unscored doses. Some doses without a T/C left all or most animals alive at the check, yet need not have been tolerated: the source hardly ever lists a survival T/C far under the control, and the zero likely stands for such cases as well. Survivors were counted at the toxicity check, usually on the fifth day, unless a day is given; later deaths do not show. Schedules are NCI's codes, taken here to give the interval after Q, in days (D) or hours (H), and the number of doses after X. Some schedules carry Z or #; the key to these is not given. For survival time, this PubChem deposit counts one and a half times the control or more as active, and values a quarter to a half above the control carry no call in these data; other NCI protocols may use other cut-offs. Some entries hold several experiments; the values are given in rising order. Some T/C values are followed by the survivors on the day toxicity was checked, most often the fifth; without a count, all were alive then.

System: L1210 leukemia ip in BDF1 mice, survival T/C
Assay: NCI In Vivo Anticancer Drug Screen. Data for tumor model L1210 Leukemia (intraperitoneal) in B6D2F1 (BDF1) mice
Conditions: higher T/C = longer survival
[1] = T/C endpoint: mean survival time, dose: 100.0 mg/kg/injection, schedule: Q01DX001 (ip), vehicle: saline
[2] = T/C endpoint: mean survival time, dose: 200.0 mg/kg/injection, schedule: Q01DX001 (ip), vehicle: saline
[3] = T/C endpoint: mean survival time, dose: 400.0 mg/kg/injection, schedule: Q01DX001 (ip), vehicle: saline
[4] = T/C endpoint: mean survival time, dose: 150.0 mg/kg/injection, schedule: Q01DX001 (ip), vehicle: saline
[5] = T/C endpoint: mean survival time, dose: 200.0 mg/kg/injection, schedule: Q04DX003 (ip), vehicle: saline
[6] = T/C endpoint: mean survival time, dose: 400.0 mg/kg/injection, schedule: Q04DX003 (ip), vehicle: saline
[7] = T/C endpoint: mean survival time, dose: 400.0 mg/kg/injection, schedule: Q04DX003 (ip), vehicle: saline with Tween-80
[8] = T/C endpoint: mean survival time, dose: 400.0 mg/kg/injection, schedule: Q01DX009 (ip), vehicle: Klucel (hydroxypropylcellulose) (HPC)
[9] = T/C endpoint: mean survival time, dose: 100.0 mg/kg/injection, schedule: Q04DX003 (ip), vehicle: saline with Tween-80
[10] = T/C endpoint: mean survival time, dose: 200.0 mg/kg/injection, schedule: Q01DX009 (ip), vehicle: saline with Tween-80
[11] = T/C endpoint: mean survival time, dose: 400.0 mg/kg/injection, schedule: Q01DX009 (ip), vehicle: saline with Tween-80
[12] = T/C endpoint: mean survival time, dose: 50.0 mg/kg/injection, schedule: Q01DX009 (ip), vehicle: saline with Tween-80
[13] = T/C endpoint: mean survival time, dose: 100.0 mg/kg/injection, schedule: Q01DX009 (ip), vehicle: saline with Tween-80
[14] = T/C endpoint: mean survival time, dose: 200.0 mg/kg/injection, schedule: Q04DX003 (ip), vehicle: saline with Tween-80

## C1C[S+]2CCN1CC2
[1]
  survivor count: 1 of 4
[2]
  survivor count: 0 of 4
[3]
  survivor count: 0 of 4

## CCCCCCC(CCCCCC)c1ccccc1
T/C endpoint: mean survival time, dose: 400.0 mg/kg/injection, schedule: Q01DX001 (ip), vehicle: saline with Tween-80
  survivor count: 6 of 6

## CS(=O)(=O)OCCNCCOS(C)(=O)=O
[4]
  survivor count: 6 of 6
T/C endpoint: mean survival time, dose: 300.0 mg/kg/injection, schedule: Q01DX001 (ip), vehicle: saline
  survivor count: 2 of 6

## CC(=O)OCC1OC(OC(C)C)[CH]([Hg][S]Cc2ccccc2)C(OC(C)=O)C1OC(C)=O (stereo unspecified)
T/C endpoint: mean survival time, dose: 16.0 mg/kg/injection, schedule: Q01DX015 (ip), vehicle: carboxymethylcellulose (CMC)
  survivor count: 4 of 6

## CCC(C)C(CCCN1CCCCC1)(CNC(=O)CN(CC)CC)c1cccc2ccccc12 (stereo unspecified)
[5]
  survivor count: 3 of 6
[6]
  survivor count: 0 of 6

## C[n+]1ccc(C(=O)O)c2ccccc21
T/C endpoint: mean survival time, dose: 300.0 mg/kg/injection, schedule: Q04DX003 (ip), vehicle: acetone
  survivor count: 1 of 6

## CC(=O)OC1C(NC(=O)OCc2ccccc2)CC(NC(=O)OCc2ccccc2)C(O)C1O (stereo unspecified)
[7]
  survivor count: 1 of 6

## CCCCCCCCCNC(C)=O
[8]
  survivor count: 0 of 6

## CCCCCC[N+](C)(C)CCOC(=O)C1C2CC3OC(=O)C1C3C2 (stereo unspecified)
[5]
  survivor count: 2 of 4
[6]
  survivor count: 0 of 4

## CCSc1nc(Cl)cc(Sc2nc(N)nc3nc[nH]c23)n1
T/C endpoint: mean survival time, dose: 29.0 mg/kg/injection, schedule: Q01DX001 (ip), vehicle: saline
  T/C: 128 % of control
T/C endpoint: mean survival time, dose: 40.0 mg/kg/injection, schedule: Q01DX009 (ip), vehicle: saline
  T/C: 128 % of control
T/C endpoint: mean survival time, dose: 60.0 mg/kg/injection, schedule: Q04DX003 (ip), vehicle: saline
  T/C: 126 % of control
T/C endpoint: mean survival time, dose: 66.0 mg/kg/injection, schedule: Q01DX001 (ip), vehicle: saline
  T/C: 128 % of control
T/C endpoint: mean survival time, dose: 75.0 mg/kg/injection, schedule: Q01DX009 (ip), vehicle: saline
  T/C: 129 % of control
[1]
  T/C: 117, 121, 127, 145 % of control
T/C endpoint: mean survival time, dose: 100.0 mg/kg/injection, schedule: Q04DX003 (ip), vehicle: saline
  T/C: 140 % of control
T/C endpoint: mean survival time, dose: 132.0 mg/kg/injection, schedule: Q04DX003 (ip), vehicle: Klucel (hydroxypropylcellulose) (HPC)
  T/C: 137 % of control
[4]
  T/C: 131 % of control
T/C endpoint: mean survival time, dose: 200.0 mg/kg/injection, schedule: Q01DX009 (ip), vehicle: saline
  T/C: 149 % of control
T/C endpoint: mean survival time, dose: 200.0 mg/kg/injection, schedule: Q01DX Z (ip), vehicle: carboxymethylcellulose (CMC)
  T/C: 147 % of control
[5]
  T/C: 147 % of control
[3]
  survivor count: 6 of 6
T/C endpoint: mean survival time, dose: 400.0 mg/kg/injection, schedule: Q01DX Z (ip), vehicle: carboxymethylcellulose (CMC)
  T/C: 140 % of control
T/C endpoint: mean survival time, dose: 540.0 mg/kg/injection, schedule: Q01DX001 (ip), vehicle: saline
  T/C: 145 % of control
T/C endpoint: mean survival time, dose: 540.0 mg/kg/injection, schedule: Q04DX003 (ip), vehicle: saline
  T/C: 134 % of control

## Clc1nn2nnnc2c2ccccc12
T/C endpoint: mean survival time, dose: 25.0 mg/kg/injection, schedule: Q04DX002 (ip), vehicle: Klucel (hydroxypropylcellulose) (HPC)
  survivor count: 3 of 3
T/C endpoint: mean survival time, dose: 50.0 mg/kg/injection, schedule: Q04DX002 (ip), vehicle: Klucel (hydroxypropylcellulose) (HPC)
  survivor count: 0 of 3
T/C endpoint: mean survival time, dose: 100.0 mg/kg/injection, schedule: Q04DX002 (ip), vehicle: Klucel (hydroxypropylcellulose) (HPC)
  survivor count: 0 of 3

## CCOc1ccc(Nc2ncnc3nc[nH]c23)cc1CN(CCCl)C(C)CCl (stereo unspecified)
T/C endpoint: mean survival time, dose: 8.0 mg/kg/injection, schedule: Q01DX Z (ip), vehicle: saline
  survivor count: 5 of 6

## CCCCOC(=O)c1ccccn1
[7]
  survivor count: 1 of 6

## OCCC1(CCO)CCCCC1
[9]
  survivor count: 6 of 6
[10]
  survivor count: 3 of 6
[11]
  survivor count: 0 of 6

## O=C1c2ccccc2C(=O)N1CC[P+](c1ccccc1)(c1ccccc1)c1ccccc1
T/C endpoint: mean survival time, dose: 25.0 mg/kg/injection, schedule: Q01DX009 (ip), vehicle: water
  survivor count: 1 of 6
T/C endpoint: mean survival time, dose: 50.0 mg/kg/injection, schedule: Q01DX009 (ip), vehicle: water
  survivor count: 1 of 6
T/C endpoint: mean survival time, dose: 100.0 mg/kg/injection, schedule: Q01DX009 (ip), vehicle: water
  survivor count: 0 of 6
T/C endpoint: mean survival time, dose: 200.0 mg/kg/injection, schedule: Q01DX009 (ip), vehicle: water
  survivor count: 0 of 6
T/C endpoint: mean survival time, dose: 400.0 mg/kg/injection, schedule: Q01DX009 (ip), vehicle: water
  survivor count: 0 of 6

## N#C/C(=N\N=Nc1ccccc1)c1ccccc1
T/C endpoint: mean survival time, dose: 3.0 mg/kg/injection, schedule: Q01DX009 (ip), vehicle: DMSO
  survivor count: 5 of 6
T/C endpoint: mean survival time, dose: 25.0 mg/kg/injection, schedule: Q01DX009 (ip), vehicle: DMSO
  survivor count: 5 of 6
T/C endpoint: mean survival time, dose: 50.0 mg/kg/injection, schedule: Q01DX009 (ip), vehicle: DMSO
  survivor count: 1 of 6

## Nc1nc(SCc2ccccc2)c2ncn(C3CC(O)C(CO)O3)c2n1 (stereo unspecified)
T/C endpoint: mean survival time, dose: 44.0 mg/kg/injection, schedule: Q01DX001 (ip), vehicle: saline
  T/C: 142 % of control
T/C endpoint: mean survival time, dose: 50.0 mg/kg/injection, schedule: Q01DX001 (ip), vehicle: saline
  T/C: 126 % of control
T/C endpoint: mean survival time, dose: 67.0 mg/kg/injection, schedule: Q01DX001 (ip), vehicle: saline
  T/C: 143 % of control
[1]
  T/C: 132 and 137 % of control
[4]
  T/C: 128 % of control [5 of 6 alive]
[2]
  T/C: 134 % of control

## Cn1nnc(N/N=C/c2ccccc2)n1
[12]
  survivor count: 0 of 6
[13]
  survivor count: 0 of 6
[9]
  survivor count: 2 of 6
[14]
  survivor count: 0 of 6
[7]
  survivor count: 0 of 6

## OC(c1ccccc1)(c1ccccc1)C(F)(F)C(F)(F)C(F)(F)F
T/C endpoint: mean survival time, dose: 500.0 mg/kg/injection, schedule: Q01DX Z (ip), vehicle: methylcellulose (MC)
  survivor count: 6 of 6

## COc1ccc(C2c3cc4c(c(OC)c3CC3OCC(=O)C32)OCO4)cc1OC (stereo unspecified)
T/C endpoint: median survival time, dose: 200.0 mg/kg/injection, schedule: Q01DX009 (ip), vehicle: Klucel (hydroxypropylcellulose) (HPC)
  survivor count: 7 of 8

## N#C[CH2][Sn]([I])([c]1ccccc1)[c]1ccccc1
T/C endpoint: mean survival time, dose: 6.25 mg/kg/injection, schedule: Q01DX009 (ip), vehicle: saline with Tween-80
  survivor count: 0 of 3
T/C endpoint: mean survival time, dose: 12.5 mg/kg/injection, schedule: Q01DX009 (ip), vehicle: saline with Tween-80
  survivor count: 0 of 3
T/C endpoint: mean survival time, dose: 25.0 mg/kg/injection, schedule: Q01DX009 (ip), vehicle: saline with Tween-80
  survivor count: 0 of 3
[12]
  survivor count: 0 of 3
[13]
  survivor count: 0 of 3
T/C endpoint: mean survival time, dose: 100.0 mg/kg/injection, schedule: Q04DX002 (ip), vehicle: saline with Tween-80
  survivor count: 0 of 3
[10]
  survivor count: 0 of 3
T/C endpoint: mean survival time, dose: 200.0 mg/kg/injection, schedule: Q04DX002 (ip), vehicle: saline with Tween-80
  survivor count: 0 of 3
T/C endpoint: mean survival time, dose: 400.0 mg/kg/injection, schedule: Q04DX002 (ip), vehicle: saline with Tween-80
  survivor count: 0 of 3

## CC1CCC=C2C(=O)C3OC3C(C(C)(C)O)C21C (stereo unspecified)
[14]
  survivor count: 6 of 6

## C/C(CC(C)C)=N/Nc1nc(C)cc(=O)[nH]1
[8]
  survivor count: 4 of 6

## O=C(c1ccc(Cl)cc1Cl)C(Cl)Cl
T/C endpoint: mean survival time, dose: 240.0 mg/kg/injection, schedule: Q01DX015 (ip), vehicle: saline
  survivor count: 0 of 6

## CCOC(=O)c1ccc(N2C(=O)C=CC2=O)cc1
[13]
  survivor count: 6 of 6
[10]
  survivor count: 6 of 6
[11]
  survivor count: 3 of 6

## O=C(O)COc1c(Cl)c(Cl)c(Cl)c(Cl)c1Cl
[10]
  survivor count: 0 of 6
[11]
  survivor count: 0 of 6
